{
  "source": "patent US20110105500A1",
  "about": "“PYRAZINE SUBSTITUTED PURINES” (S*BIO Pte Ltd., priority 2008, published 2011)",
  "origin": "cited, not measured here",
  "tested_on": "sixty tumor cell lines",
  "conditions": "NCI screen; cited from earlier work",
  "note": "At least one compound was matched to its structure with a doubt left.",
  "data": [
    {"smiles": "CO[C@H]1C[C@@H]2CC[C@@H](C)[C@@](O)(O2)C(=O)C(=O)N2CCCC[C@H]2C(=O)O[C@H]([C@H](C)C[C@@H]2CC[C@@H](O)[C@H](OC)C2)CC(=O)[C@H](C)/C=C(\\C)[C@@H](O)[C@@H](OC)C(=O)[C@H](C)C[C@H](C)/C=C/C=C/C=C/1C", "note": "[rapamycin]", "values": [
      {"measurement": "general sensitivity to the drug (dose)", "value": "under 2000 ng/ml"}
    ]}
  ]
}
